# From PMC7819943, “Rice protein-binding microarrays: a tool to detect cis-acting elements near promoter regions in rice”
# The list shows a part of the results.
# Biological target: T1, OsSMF1 (Oryza sativa, UniProt Q6ZLB0 1-436)
# T1 sequence: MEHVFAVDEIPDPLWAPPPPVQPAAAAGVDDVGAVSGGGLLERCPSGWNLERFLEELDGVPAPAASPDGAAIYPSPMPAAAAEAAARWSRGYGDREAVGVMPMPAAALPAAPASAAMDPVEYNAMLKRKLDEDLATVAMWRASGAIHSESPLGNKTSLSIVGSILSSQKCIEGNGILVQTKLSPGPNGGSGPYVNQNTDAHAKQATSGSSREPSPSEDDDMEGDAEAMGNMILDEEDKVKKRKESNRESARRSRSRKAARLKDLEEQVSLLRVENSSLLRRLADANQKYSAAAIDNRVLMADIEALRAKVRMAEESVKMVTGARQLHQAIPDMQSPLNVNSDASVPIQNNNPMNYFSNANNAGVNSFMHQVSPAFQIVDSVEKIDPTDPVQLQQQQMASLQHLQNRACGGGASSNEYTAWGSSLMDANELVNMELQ
# Assay: protein-binding microarray (RPBM); PBS, 2% BSA, 51.3 ng/ul salmon testes DNA, 50 uM zinc acetate, 200 nM TF, 25 C, 1 h; high values mean tight binding
# Settings: protein: recombinant; tags: N-terminal polyhistidine and DsRed monomer fusion (pET32a); chain copies: 2; label: CyDye5-dUTP incorporated in the synthesized complementary strand; 3' TTTTT single-stranded linker to array surface; dsDNA, one strand shown
# Procedure, shortened: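 The binding signal is fluorescence intensity per feature, in arbitrary units, read on an Axon 4000B scanner. Polyhistidine- and DsRed-tagged transcription factors (N-terminal fusions) from E. coli BL21-CodonPlus were purified on Ni–NTA and applied at 200 nM for 1 h at 25 °C to a double-stranded, BSA-blocked custom Agilent array in buffer with 50 µM zinc acetate.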
row,Sequence,binding signal
1,TCTTGGAAAAGAACACATGTGGGTAATCATCGTGAGATGTCGGAGTCACCTAGTGCAG,3360 fluorescence intensity (a.u.)
2,TAGGAGGCCCACGTGGGCGACGACGGCAGGAGACCACCATCGGAGTCACCTAGTGCAG,3660 fluorescence intensity (a.u.)
3,CTTTAATAACCCTCCACGTGTTCCAGTGCGCCACCCATCACGGAGTCACCTAGTGCAG,11900 fluorescence intensity (a.u.)
4,ATGCTTCTACGCAGTTGAGTTGTCACAGCCTGATTTTCGTCGGAGTCACCTAGTGCAG,5420 fluorescence intensity (a.u.)
5,GTCAAAGTTATAAAAGTTTGACCTCAACTTTGTCCAAAACCGGAGTCACCTAGTGCAG,24200 fluorescence intensity (a.u.)
6,TGTCAAAATTTTGACTGTTACTCGTTGGGACTATGGACCTCGGAGTCACCTAGTGCAG,17900 fluorescence intensity (a.u.)
7,TCACTCCAACTCGCCTCCCGTCCCTGACATTGGCAGCTTCCGGAGTCACCTAGTGCAG,3260 fluorescence intensity (a.u.)
8,GAGTCTAGTTAGTTCATGATTAGGCATAAGTGCTGCATTACGGAGTCACCTAGTGCAG,3340 fluorescence intensity (a.u.)
9,GCACATACATGTACAATGAGATGACAAAATCACGCGTCATCGGAGTCACCTAGTGCAG,5190 fluorescence intensity (a.u.)
10,GACATCTGGAGGCGTCATGCAAGATGTCACATCCATAGAACGGAGTCACCTAGTGCAG,3940 fluorescence intensity (a.u.)
11,AAACCTTATAGTTGTTTAAATTCTCGAAACAAGGTCCCTGCGGAGTCACCTAGTGCAG,3180 fluorescence intensity (a.u.)
12,CGCCGCCGCTCCCGCCACCGCCACATCCCTTGCCGGTGATCGGAGTCACCTAGTGCAG,3240 fluorescence intensity (a.u.)
13,GTTCCACATTTCAGCATTAATGAATTGGCATACGTGATGACGGAGTCACCTAGTGCAG,3360 fluorescence intensity (a.u.)
14,AAGCACATCACCAAGACCATGGTGAAGTCTTATAGGCATGCGGAGTCACCTAGTGCAG,3430 fluorescence intensity (a.u.)
15,GCAGATGCAGTCACATGTTCTTTTCTCTCTCATCACCATGCGGAGTCACCTAGTGCAG,3530 fluorescence intensity (a.u.)
16,TGTGGGATGGATTTGTGGTGATTGAGAGGGTTTGAAAGGGCGGAGTCACCTAGTGCAG,3190 fluorescence intensity (a.u.)
17,GGGCCTCAATTTCCAACCCATCTACGTGTTCAGACTACAGCGGAGTCACCTAGTGCAG,3480 fluorescence intensity (a.u.)
18,AGTGTGGAGAAACTGTAACATGGCCTTTGAAAAGCTGTCACGGAGTCACCTAGTGCAG,15800 fluorescence intensity (a.u.)
19,ACTCTCTCCTGTGACTGTGTGTGTGTGCGCGTGTGCGTGCCGGAGTCACCTAGTGCAG,6270 fluorescence intensity (a.u.)
20,TAGTGATTACATCACTACTGATAGCCTGATATATGGCAAGCGGAGTCACCTAGTGCAG,4060 fluorescence intensity (a.u.)
21,CGGGTGTGCGTCACCGGAGGCGCCGGCTTCATCGCCTCGTCGGAGTCACCTAGTGCAG,7270 fluorescence intensity (a.u.)

# Shown tab-delimited: entries from further up
row	Sequence	binding signal
9	GCACATACATGTACAATGAGATGACAAAATCACGCGTCATCGGAGTCACCTAGTGCAG	5190 fluorescence intensity (a.u.)
10	GACATCTGGAGGCGTCATGCAAGATGTCACATCCATAGAACGGAGTCACCTAGTGCAG	3940 fluorescence intensity (a.u.)
11	AAACCTTATAGTTGTTTAAATTCTCGAAACAAGGTCCCTGCGGAGTCACCTAGTGCAG	3180 fluorescence intensity (a.u.)

# More entries follow.

row,Sequence,binding signal
1,CTATTTAAAACGTGACGCAATGCAGCGATAGAGCACCTTGCGGAGTCACCTAGTGCAG,5260 fluorescence intensity (a.u.)
2,CTATAGGTTGCCGGCACGTGCGACCTGCTCCGTAGCGAGCCGGAGTCACCTAGTGCAG,3370 fluorescence intensity (a.u.)
3,CAATCAGCTATCGTATGTATGTAGAAGATACACATGGCATCGGAGTCACCTAGTGCAG,3150 fluorescence intensity (a.u.)
4,AGCACAAACCGACGGCGAGCTGCCCTCCTTATCCTCCGATCGGAGTCACCTAGTGCAG,29800 fluorescence intensity (a.u.)
5,CGTCTGAAGTCCGGGCTCCTGCAGGCAGCATTATACCCATCGGAGTCACCTAGTGCAG,3280 fluorescence intensity (a.u.)
6,TTATTCTCTTTGGTCTGCAAAGAGACAACGCATTATGCTACGGAGTCACCTAGTGCAG,3150 fluorescence intensity (a.u.)
7,ACTTTCTGATGTGTGGATAAGGCCTGCATTTGGTGGACGTCGGAGTCACCTAGTGCAG,5290 fluorescence intensity (a.u.)
8,CTCCAGCCTAAAATAAGTGCAGCCGTGGATATCTGTGTCCCGGAGTCACCTAGTGCAG,22000 fluorescence intensity (a.u.)
9,ATTACCACGATCCATTCAGATCCTACGTGGCGCTCGCGCGCGGAGTCACCTAGTGCAG,16100 fluorescence intensity (a.u.)
10,GTTGGGTTGGGTCGAGTTGGAGTGGGCCTTCTTATCTTGACGGAGTCACCTAGTGCAG,4480 fluorescence intensity (a.u.)
11,CCTGGCAAGGATGACGTCCAAGAAATCTGCACGGTTTCTTCGGAGTCACCTAGTGCAG,4050 fluorescence intensity (a.u.)
12,CCCATCCACCAGCTCACAATGTCATGTCACTATGCATCTCCGGAGTCACCTAGTGCAG,6200 fluorescence intensity (a.u.)
13,CTCCTCCACCACCACACGCACGTACAGACGTACTCGATCTCGGAGTCACCTAGTGCAG,3200 fluorescence intensity (a.u.)
14,CTTCTCCACCGTCTCCATGGCTGTCCTGTCCGGCCCCTGGCGGAGTCACCTAGTGCAG,3180 fluorescence intensity (a.u.)
15,AGAGTTCAGTGTCCATGTGCGAAAAGTGCCATCCCTCTCTCGGAGTCACCTAGTGCAG,3210 fluorescence intensity (a.u.)
16,ACCAGGGGACCCGTCCCGCGCGCGTTACACCGATCGAATCCGGAGTCACCTAGTGCAG,3160 fluorescence intensity (a.u.)
17,GCACGCCGGCGTATCGCCGGCGATCCCAACTCCACGTCGACGGAGTCACCTAGTGCAG,8050 fluorescence intensity (a.u.)
18,CTCAGCCTACCCATATAATAGTGAGTTCTTTACGATTAATCGGAGTCACCTAGTGCAG,4160 fluorescence intensity (a.u.)
19,CACGTCGGTTCGCGTGCGCCACGGTGGCAGGAGGACGGCGCGGAGTCACCTAGTGCAG,11200 fluorescence intensity (a.u.)
20,GCAGCACAAAAGTTCATTCCTCCCTTTCTCTTTGCAGGCACGGAGTCACCTAGTGCAG,16100 fluorescence intensity (a.u.)
21,CACATGATACCTCGCGAGTATCACGCGATACGTGGTAGAACGGAGTCACCTAGTGCAG,3400 fluorescence intensity (a.u.)
